According to publication PMC8406308:
No constants are given. Whether binding was seen depends on the method and setting. For some assays here: Binding calls can cover weak binding; strength is not graded here. For some assays here: Sequences can lack the tags named with a protein. For some assays here: In cells and extracts the contact can be indirect.

How the values were obtained:
[1] = biological target: T1, Flag-API5 (apoptosis inhibitor 5) (Gallus (chicken)) (UniProt Q5ZMW3); experiment: co-IP; HEK293T cells cotransfected for 48 h, lysed in NP-40 buffer; precipitated with anti-Flag, anti-Myc or anti-GFP mouse MAb and protein A/G agarose at 4°C; Western blot
T1 sequence: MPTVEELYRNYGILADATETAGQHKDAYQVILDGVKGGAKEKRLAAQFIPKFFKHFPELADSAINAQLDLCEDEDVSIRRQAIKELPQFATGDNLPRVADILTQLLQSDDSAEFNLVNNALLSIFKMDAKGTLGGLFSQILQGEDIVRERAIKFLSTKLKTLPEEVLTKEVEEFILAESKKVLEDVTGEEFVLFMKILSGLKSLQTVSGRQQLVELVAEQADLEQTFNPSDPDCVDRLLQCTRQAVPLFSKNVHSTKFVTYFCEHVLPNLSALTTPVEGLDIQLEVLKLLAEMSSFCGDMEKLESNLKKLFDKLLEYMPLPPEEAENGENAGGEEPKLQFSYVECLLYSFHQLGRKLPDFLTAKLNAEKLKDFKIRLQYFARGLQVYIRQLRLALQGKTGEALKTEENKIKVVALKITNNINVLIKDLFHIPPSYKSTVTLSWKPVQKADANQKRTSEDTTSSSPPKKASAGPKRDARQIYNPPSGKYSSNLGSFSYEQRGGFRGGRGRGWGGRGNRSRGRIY

[2] = biological target: T2, Flag-SENP1 (UniProt Q9P0U3); experiment: as above
T2 sequence: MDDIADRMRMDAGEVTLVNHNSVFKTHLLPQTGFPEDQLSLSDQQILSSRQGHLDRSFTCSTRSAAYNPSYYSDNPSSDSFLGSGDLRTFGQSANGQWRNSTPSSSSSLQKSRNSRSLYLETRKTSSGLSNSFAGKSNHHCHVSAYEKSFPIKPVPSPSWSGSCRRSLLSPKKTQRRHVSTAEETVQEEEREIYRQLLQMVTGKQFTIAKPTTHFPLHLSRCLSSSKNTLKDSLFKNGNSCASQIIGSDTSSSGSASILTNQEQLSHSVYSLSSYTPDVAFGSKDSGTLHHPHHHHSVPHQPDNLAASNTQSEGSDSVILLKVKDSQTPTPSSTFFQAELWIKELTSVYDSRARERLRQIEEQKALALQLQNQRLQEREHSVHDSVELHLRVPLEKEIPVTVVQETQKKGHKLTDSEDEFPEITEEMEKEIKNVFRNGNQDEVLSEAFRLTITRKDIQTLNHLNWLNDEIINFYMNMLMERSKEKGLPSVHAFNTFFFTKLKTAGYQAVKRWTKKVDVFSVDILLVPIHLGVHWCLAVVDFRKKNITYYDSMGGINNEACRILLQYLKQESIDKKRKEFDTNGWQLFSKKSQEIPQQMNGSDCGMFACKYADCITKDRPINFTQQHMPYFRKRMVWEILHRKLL

[3] = biological target: T3, Flag-SENP2 (human) (UniProt Q9HC62); experiment: as above
T3 sequence: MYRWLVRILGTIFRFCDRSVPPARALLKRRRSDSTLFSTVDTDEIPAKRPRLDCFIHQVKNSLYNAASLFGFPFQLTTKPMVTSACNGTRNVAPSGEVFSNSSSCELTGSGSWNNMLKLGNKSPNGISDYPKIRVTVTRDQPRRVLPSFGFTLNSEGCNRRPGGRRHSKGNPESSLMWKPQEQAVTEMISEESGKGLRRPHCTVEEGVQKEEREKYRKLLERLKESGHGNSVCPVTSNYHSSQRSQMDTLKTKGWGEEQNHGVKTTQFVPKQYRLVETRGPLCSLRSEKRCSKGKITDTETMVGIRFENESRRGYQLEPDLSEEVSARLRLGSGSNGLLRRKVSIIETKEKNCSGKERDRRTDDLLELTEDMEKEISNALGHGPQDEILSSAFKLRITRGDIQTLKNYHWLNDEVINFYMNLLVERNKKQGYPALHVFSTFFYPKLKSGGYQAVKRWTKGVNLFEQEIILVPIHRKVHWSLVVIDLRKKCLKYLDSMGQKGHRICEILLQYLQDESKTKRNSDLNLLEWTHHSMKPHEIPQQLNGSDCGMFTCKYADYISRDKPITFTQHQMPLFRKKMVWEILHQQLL

[4] = biological target: T4, endogenous API5 (apoptosis inhibitor 5) of DF-1 cells (chicken (endogenous in DF-1)) (UniProt Q5ZMW3); experiment: co-IP; DF-1 cells infected with IBDV for 12 h; lysates precipitated with anti-API5 or anti-VP3 mouse MAb; Western blot
T4 sequence: T1 sequence

[5] = biological target: GST-VP3 (infectious bursal disease virus (IBDV)); experiment: pull-down; purified GST-VP3 incubated with His-API5 or SUMO3-API5 for 4 h at 4°C, then GST resin; washed five times with NP-40 buffer; Western blot; both purified

“Myc-VP3 (infectious bursal disease virus (IBDV))” was tested, and the binding [1] was “binds”, the binding [2] was “no binding” and the binding [3] was “no binding”.

With “Avibirnavirus infectious bursal disease virus (IBDV) viral protein VP3, from infection” the binding [4] was “binds”.

B1: His-API5 (protein, UniProt Q5ZMW3 1-523)
chain: T1 sequence
B1 was tested, and the binding [5] was “binds”.
